SMILES strings stand for the structures. The list does not hold the whole screen: it is rich in T/C values a quarter to a half above the control, in often repeated tests (any T/C) and in doses without a T/C. Further doses and runs are listed elsewhere. T/C is the treated group as % of the vehicle group. Some entries give survivors of the animals treated and no T/C: the source files T/C as zero there, which appears to mark a toxic dose or a test without result, not a measured value. Some survivor counts are full or nearly so, which does not show that the dose was tolerated: survival well below the control is almost never listed, so the zero probably covers shortened survival too. Counts of survivors are from the toxicity check (mostly the fifth day) where no day follows; animals may have died later. Schedules are NCI's codes, taken here to give the interval after Q, in days (D) or hours (H), and the number of doses after X. Brackets with × say how often a value occurs here. For survival time, the PubChem record calls one and a half times the control and up active, and a quarter to a half above the control has no call in these data; cut-offs in other NCI protocols can differ. Some T/C values carry the count of animals alive at the toxicity check (mostly the fifth day); where none is given, no animal had died by that day. Peptide text beside a SMILES is read from it. * marks the point of attachment. Cbz = O=C(OCc1ccccc1)*

The subject of the test is BDF1 mice, B16 melanoma ip, median survival T/C. Nature of the test: NCI In Vivo Anticancer Drug Screen. Data for tumor model B16 Melanoma (intraperitoneal) in B6D2F1 (BDF1) mice. The settings on record: T/C endpoint: median survival time, higher T/C = longer survival. The method in brief: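 Read-out: survival or tumor size, given as treated/control ratio. Controls received vehicle only; animals bore transplantable tumors.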

Setting [1] is: dose: 100.0 mg/kg/injection, schedule: Q01DX009 (ip), vehicle: saline with Tween-80.
The mark [2] stands for this setting: dose: 200.0 mg/kg/injection, schedule: Q01DX009 (ip), vehicle: saline with Tween-80.
[3] abbreviates: dose: 400.0 mg/kg/injection, schedule: Q01DX009 (ip), vehicle: saline with Tween-80.
The mark [4] stands for this setting: dose: 50.0 mg/kg/injection, schedule: Q01DX009 (ip), vehicle: saline with Tween-80.
The mark [5] stands for this setting: dose: 200.0 mg/kg/injection, schedule: Q01DX009 (ip), vehicle: saline.

`NC(=O)CNC1=C(N2CC2)C(=O)C(NCC(N)=O)=C(N2CC2)C1=O`: the T/C is, setting by setting: (dose: 2.0 mg/kg/injection, schedule: Q01DX009 (ip), vehicle: saline) 134 % of control; (dose: 8.0 mg/kg/injection, schedule: Q01DX009 (ip), vehicle: saline) 137 % of control.

For `CCN(C(=O)Nc1ccccc1)c1ccccc1C`, the survivor count is 10 of 10 under setting [1], 9 of 10 under setting [2] and 9 of 10 under setting [3].

For `NC(=O)C(Cc1ccccc1)NC(=O)C(Cc1ccccc1)NC(=O)C(Cc1ccccc1)NC(=O)OCc1ccccc1` (stereo not drawn) (Cbz-Phe-Phe-Phe-NH2; configuration not given here), the survivor count was 10 of 10 under setting [4], 10 of 10 under setting [1], 10 of 10 under setting [2] and 10 of 10 under setting [3].

Regarding `COC(=O)C[C@](O)(CCCC(C)(C)O)C(=O)O[C@@H]1C(OC)=C[C@]23CCCN2CCc2cc4c(cc2[C@H]13)OCO4`, the T/C by setting is: (dose: 0.06 mg/kg/injection, schedule: Q01DX009 (ip), vehicle: saline sonified) 125 % of control; (dose: 0.5 mg/kg/injection, schedule: Q01DX009 (ip), vehicle: saline sonified) 125 % of control; (dose: 0.5 mg/kg/injection, schedule: Q01DX009 (ip), vehicle: saline with Tween-80) 126 % of control. Also, the survivor count runs as follows: (dose: 2.0 mg/kg/injection, schedule: Q01DX009 (ip), vehicle: saline with Tween-80) 6 of 6; (dose: 4.0 mg/kg/injection, schedule: Q01DX009 (ip), vehicle: saline with Tween-80) 2 of 6; (dose: 4.08 mg/kg/injection, schedule: Q04DX003 (ip), vehicle: saline) 5 of 8.

As to `CS(=O)(=O)Nc1ccc(Nc2c3ccccc3nc3cc(Cl)ccc23)cc1`, the T/C (dose: 0.75 mg/kg/injection, schedule: Q01DX009 (ip), vehicle: saline with Tween-80) is 125 % of control and the T/C (dose: 1.5 mg/kg/injection, schedule: Q01DX009 (ip), vehicle: saline with Tween-80) is 130 % of control. Moreover, the survivor count reads like this: (dose: 18.8 mg/kg/injection, schedule: Q01DX009 (ip), vehicle: saline sonified) 5 of 6; (dose: 37.5 mg/kg/injection, schedule: Q01DX009 (ip), vehicle: saline sonified) 4 of 6; (dose: 75.0 mg/kg/injection, schedule: Q01DX009 (ip), vehicle: saline sonified) 6 of 6; (dose: 150.0 mg/kg/injection, schedule: Q01DX001 (ip), vehicle: saline sonified) 6 of 6; (dose: 150.0 mg/kg/injection, schedule: Q01DX009 (ip), vehicle: saline sonified) 4 of 6; (dose: 300.0 mg/kg/injection, schedule: Q01DX001 (ip), vehicle: saline sonified) 5 of 6.

On to `C#CCN(C)/N=N/c1nc[nH]c1C(N)=O`, for which the survivor count reads like this: under setting [1], 10 of 10; under setting [2], 8 of 10.

As for `CC[C@H](C)[C@H](NC(=O)OC(C)(C)C)C(=O)ON1C(=O)CCC1=O`, the survivor count under setting [3] is recorded as 7 of 10.

Turning to `C[n+]1ccc(C#N)c2ccccc21`, under “dose: 15.0 mg/kg/injection, schedule: Q01DX009 (ip), vehicle: saline”, the survivor count is listed as 6 of 6.

Consider `CCOC(=O)NC(C)(C)CN(CCO)C(=O)OCC`, for which the survivor count (dose: 200.0 mg/kg/injection, schedule: Q04DX003 (ip), vehicle: Klucel (hydroxypropylcellulose) (HPC)) was 8 of 10.

In the case of `CCOC(=O)c1[nH]c(C)nc1/N=N/N(C)C`, under setting [5], the survivor count is 10 of 10.

For the compound `COc1ccc(C(=S)N2CCN(c3ccccc3)CC2)cc1`, the survivor count is on record as 9 of 10 (dose: 25.0 mg/kg/injection, schedule: Q01DX009 (ip), vehicle: saline with Tween-80); 10 of 10 under setting [4]; 10 of 10 under setting [1].

Regarding `ClCc1ccc(Oc2ccc(CCl)cc2)cc1`, for the setting “dose: 25.0 mg/kg/injection, schedule: Q01DX009 (ip), vehicle: Klucel (hydroxypropylcellulose) (HPC)”, the T/C is 128 % of control. The survivor count (dose: 100.0 mg/kg/injection, schedule: Q01DX009 (ip), vehicle: Klucel (hydroxypropylcellulose) (HPC)) was 6 of 10 and the survivor count (dose: 200.0 mg/kg/injection, schedule: Q01DX009 (ip), vehicle: Klucel (hydroxypropylcellulose) (HPC)) is recorded as 2 of 10.

Consider `Cc1c(Cl)cccc1NC(=O)c1ccc([N+](=O)[O-])cc1`, for which the survivor count under setting [3] is 10 of 10.

`CCCCCCCCCCCCCCCCN(C)S(=O)(=O)c1ccc2sc(SC)[n+](C)c2c1` (tested in a mixture with another compound): the survivor count reads like this: (dose: 50.0 mg/kg/injection, schedule: Q04DX003 (ip), vehicle: saline with Tween-80) 8 of 8; (dose: 100.0 mg/kg/injection, schedule: Q04DX003 (ip), vehicle: saline with Tween-80) 10 of 10; (dose: 200.0 mg/kg/injection, schedule: Q04DX003 (ip), vehicle: saline with Tween-80) 10 of 10; (dose: 400.0 mg/kg/injection, schedule: Q04DX003 (ip), vehicle: saline with Tween-80) 10 of 10.

Regarding `CCCCCCCCCCCC(=O)CC`, the survivor count (dose: 400.0 mg/kg/injection, schedule: Q01DX009 (ip), vehicle: other) is given as 6 of 10.

With `CCCCCCCCCCCCCCCC(=O)Nc1ccn(C2OC(CO)C(O)C2O)c(=O)n1` (stereo not given), the T/C is 136 % of control [9 of 10 alive] (dose: 12.5 mg/kg/injection, schedule: Q01DX009 (ip), vehicle: saline) and 130 % of control (dose: 25.0 mg/kg/injection, schedule: Q01DX009 (ip), vehicle: saline). In addition, the survivor count (dose: 50.0 mg/kg/injection, schedule: Q01DX009 (ip), vehicle: saline) is 10 of 10; the survivor count (dose: 100.0 mg/kg/injection, schedule: Q01DX009 (ip), vehicle: saline) is reported as 10 of 10; the survivor count under setting [5] was 10 of 10; the survivor count (dose: 400.0 mg/kg/injection, schedule: Q01DX009 (ip), vehicle: saline) is on record as 8 of 10.

As to `Nc1ncnc2nc[nH]c12`, the survivor count (dose: 32.0 mg/kg/injection, schedule: Q01DX009 (ip), vehicle: saline with Tween-80) is recorded as 7 of 10; the survivor count (dose: 128.0 mg/kg/injection, schedule: Q01DX009 (ip), vehicle: saline with Tween-80) was 8 of 10; the survivor count (dose: 256.0 mg/kg/injection, schedule: Q01DX009 (ip), vehicle: Klucel (hydroxypropylcellulose) (HPC)) was 7 of 10; the survivor count (dose: 256.0 mg/kg/injection, schedule: Q01DX009 (ip), vehicle: saline with Tween-80) is listed as 7 of 10; the survivor count (dose: 512.0 mg/kg/injection, schedule: Q01DX009 (ip), vehicle: Klucel (hydroxypropylcellulose) (HPC)) is on record as 0 of 10; the survivor count (dose: 512.0 mg/kg/injection, schedule: Q01DX009 (ip), vehicle: saline with Tween-80) was 5 of 10.

In the case of `Nc1ccc(F)cc1[N+](=O)[O-]`, the T/C (dose: 37.5 mg/kg/injection, schedule: Q01DX009 (ip), vehicle: Klucel (hydroxypropylcellulose) (HPC)) is 127 % of control.

For the compound `COc1cccc(/C=N/NC(=O)c2ccccc2N2CCCC2)c1O`, the survivor count is 10 of 10 (dose: 12.5 mg/kg/injection, schedule: Q01DX009 (ip), vehicle: olive oil, sesame oil, peanut oil); 10 of 10 (2×) (dose: 25.0 mg/kg/injection, schedule: Q01DX009 (ip), vehicle: olive oil, sesame oil, peanut oil); 10 of 10 (dose: 50.0 mg/kg/injection, schedule: Q01DX009 (ip), vehicle: olive oil, sesame oil, peanut oil); 10 of 10 (dose: 100.0 mg/kg/injection, schedule: Q01DX009 (ip), vehicle: olive oil, sesame oil, peanut oil); 10 of 10 (dose: 200.0 mg/kg/injection, schedule: Q01DX009 (ip), vehicle: olive oil, sesame oil, peanut oil); 7 of 10 (dose: 400.0 mg/kg/injection, schedule: Q01DX009 (ip), vehicle: olive oil, sesame oil, peanut oil).

(Values after PubChem BioAssay AID192 (DTP/NCI, 2004).)
